Laboratory results taken from publication PMC7735678, “Auxin response factors (ARFs) differentially regulate rice antiviral immune response against rice dwarf virus”.
No constants are given. Whether binding was seen depends on the method and setting. Binding can be weak; no strength is given. Where a sequence is shown, tags or fusion partners need not be part of it. For some assays here: In cells and extracts the contact can be indirect.

T1: FLAG-tagged OsIAA10 (rice) (UniProt Q0DWF2)
T1 sequence: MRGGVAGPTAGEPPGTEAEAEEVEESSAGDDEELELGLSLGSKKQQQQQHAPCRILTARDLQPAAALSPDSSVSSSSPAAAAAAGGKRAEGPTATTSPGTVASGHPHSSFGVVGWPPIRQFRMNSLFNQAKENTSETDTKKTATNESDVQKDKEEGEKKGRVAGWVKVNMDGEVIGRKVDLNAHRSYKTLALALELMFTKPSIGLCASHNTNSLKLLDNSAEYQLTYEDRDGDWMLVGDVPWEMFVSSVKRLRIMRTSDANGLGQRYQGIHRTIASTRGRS

T2: OsIAA10-nLUC (rice) (UniProt Q0DWF2)
T2 sequence: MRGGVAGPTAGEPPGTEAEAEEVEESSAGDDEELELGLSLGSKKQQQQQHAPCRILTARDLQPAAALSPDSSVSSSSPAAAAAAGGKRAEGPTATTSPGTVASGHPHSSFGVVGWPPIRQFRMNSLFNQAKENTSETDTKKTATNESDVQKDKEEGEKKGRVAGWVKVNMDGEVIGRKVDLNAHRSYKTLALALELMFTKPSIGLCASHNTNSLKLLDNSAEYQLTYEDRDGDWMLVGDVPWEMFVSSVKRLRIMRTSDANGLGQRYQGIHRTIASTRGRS


Tests used:
[1] = biological target: T1, FLAG-tagged OsIAA10 (rice); experiment: co-IP; HA-OsARFs and FLAG-OsIAA10 co-expressed in N. benthamiana leaves by agroinfiltration, 3 days; IP buffer 50 mM Tris-HCl pH7.5, 150 mM NaCl, 0.1% NP-40, 5 mM DTT; anti HA- mAb or anti FLAG- mAb agarose, 4°C, 1 hr; detection by blot
OsIAA10-nLUC (rice) = biological target: T2, OsIAA10-nLUC (rice); experiment: split reporter; firefly luciferase complementation imaging (LCI): OsIAA10-nLUC and cLUC-OsARFs co-infiltrated in N. benthamiana leaves; 0.2 mM luciferin after three days; CCD imaging
[2] = biological target: OsARF11 expressed as a GAL4 DNA binding domain fusion (rice (cDNA of ZH11)); experiment: two-hybrid; yeast AH109 co-transformed with OsIAA10 (GAL4 AD fusion) and OsARFs (GAL4 BD fusion, bait); growth on SD/-Leu/-Trp/-His/-Ade
[3] = biological target: OsARF12 expressed as a GAL4 DNA binding domain fusion (rice (cDNA of ZH11)); experiment: as above
[4] = biological target: OsARF16 expressed as a GAL4 DNA binding domain fusion (rice (cDNA of ZH11)); experiment: as above
[5] = biological target: OsARF17 expressed as a GAL4 DNA binding domain fusion (rice (cDNA of ZH11)); experiment: as above
[6] = biological target: OsARF19 expressed as a GAL4 DNA binding domain fusion (rice (cDNA of ZH11)); experiment: as above
[7] = biological target: OsARF21 expressed as a GAL4 DNA binding domain fusion (rice (cDNA of ZH11)); experiment: as above
[8] = biological target: OsARF25 expressed as a GAL4 DNA binding domain fusion (rice (cDNA of ZH11)); experiment: as above
[9] = biological target: OsARF5 expressed as a GAL4 DNA binding domain fusion (rice (cDNA of ZH11)); experiment: as above
[10] = biological target: OsARF6 expressed as a GAL4 DNA binding domain fusion (rice (cDNA of ZH11)); experiment: as above

| Molecule | binding (OsIAA10-nLUC (rice)) | binding [1] | other results |
| --- | --- | --- | --- |
| hemagglutinin (HA)-tagged OsARF11 (rice (cDNA of ZH11)) | – | binds | – |
| hemagglutinin (HA)-tagged OsARF16 (rice (cDNA of ZH11)) | – | binds | – |
| cLUC-OsARF16 (rice (cDNA of ZH11)) | binds | – | – |
| cLUC-OsARF17 (rice (cDNA of ZH11)) | no binding | – | – |
| hemagglutinin (HA)-tagged OsARF19 (rice (cDNA of ZH11)) | – | binds | – |
| hemagglutinin (HA)-tagged OsARF21 (rice (cDNA of ZH11)) | – | binds | – |
| cLUC-OsARF25 (rice (cDNA of ZH11)) | no binding | – | – |
| cLUC-OsARF12 (rice (cDNA of ZH11)) | binds | – | – |
| cLUC-OsARF21 (rice (cDNA of ZH11)) | binds | – | – |
| hemagglutinin (HA)-tagged OsARF12 (rice (cDNA of ZH11)) | – | binds | – |
| OsIAA10 expressed as a GAL4 DNA activation domain fusion (protein, UniProt Q0DWF2 1-281) MRGGVAGPTAGEPPGTEAEAEEVEESSAGDDEELELGLSLGSKKQQQQQHAPCRILTARDLQPAAALSPDSSVSSSSPAAAAAAGGKRAEGPTATTSPGTVASGHPHSSFGVVGWPPIRQFRMNSLFNQAKENTSETDTKKTATNESDVQKDKEEGEKKGRVAGWVKVNMDGEVIGRKVDLNAHRSYKTLALALELMFTKPSIGLCASHNTNSLKLLDNSAEYQLTYEDRDGDWMLVGDVPWEMFVSSVKRLRIMRTSDANGLGQRYQGIHRTIASTRGRS | – | – | binding [2]: binds; binding [3]: binds; binding [4]: binds; binding [5]: binds; binding [6]: binds; binding [7]: binds; binding [8]: binds; binding [9]: binds; binding [10]: binds |

The next lines start with results.

| binding (OsIAA10-nLUC (rice)) | Molecule | binding [1] | other results |
| --- | --- | --- | --- |
| binds | cLUC-OsARF19 (rice (cDNA of ZH11)) | – | – |
| no binding | cLUC-OsARF5 (rice (cDNA of ZH11)) | – | – |
| no binding | cLUC-OsARF6 (rice (cDNA of ZH11)) | – | – |
| binds | cLUC-OsARF11 (rice (cDNA of ZH11)) | – | – |
